Data taken from PubChem BioAssay AID504648 (National Center for Advancing Translational Sciences (NCATS), 2011).
About 610 (0.16%) of roughly 390,000 compounds were called active. Inconclusive means that the source gave no clear call. Such entries were picked first, then a sample of the others. Calls come from the whole dose curve; as a rule, active = well fitted inhibition curve with a large enough effect; inconclusive = small, poorly fitted or top-dose-only effect, or effect the other way, or another doubt; inactive = no such curve, though single readings can be large or run the other way. A potency beside an inconclusive call is a rough fit, not a confirmed value.

test: Nrf2 qHTS screen for inhibitors: counterscreen for cytotoxicity; conditions: A549 ARE-Fluc cells, CellTiter-Fluor viability, 18-24 h; series mostly up to 46 µM
In short: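 A549 ARE-Fluc cells in 5% FBS OPTI-MEM, 5000 cells/well, rested 2 h then exposed to compounds in concentration-response for 18-24 h at 37 °C. Viability by CellTiter-Fluor fluorescence (Ex 405/Em 525) after 30 min; luciferase luminescence (BugLite, 15 min, RT) read afterwards.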
Potency is the fitted concentration of half-maximal effect.

Row | SMILES | Potency
1 | COC(=O)N1C(=O)[C@@](c2ccccc2)(C2CCCC2)N1C(=O)OC | inactive
2 | CCCCn1c(SCC(=O)Nc2cc(C(F)(F)F)ccc2Cl)nnc1C(CC)N(C)C (configuration not stated) | inconclusive: 20.6 µM [falling, partial curve, poor fit]
3 | CC(C)c1ccc2nc3sc(C(=O)N4CCc5ccccc5C4)c(N)c3cc2c1 | inconclusive: 2.31 µM [activator, partial curve]
4 | COc1ccc(/C=c2\s/c(=C/C(=O)c3ccc(C)cc3)[nH]c2=O)c(OC)c1 | inconclusive: 16.4 µM [falling, single point]
5 | COc1cccc(C(=O)Nc2cc(Cl)c(O)c(Cl)c2)c1 | inactive
6 | O=C(Nc1cccc(O)c1)C(Cc1ccccc1)N1C(=O)c2cccc3cccc(c23)C1=O (configuration not stated) | inconclusive: 0.82 µM [activator, full curve, poor fit]
7 | CC(C)CC(NC(=O)CCC(=O)OCC(=O)[C@@]1(O)CCC2[C@@H]3CCC4=CC(=O)C=C[C@]4(C)C3[C@@H](O)C[C@@]21C)C(=O)O (some centres not stated) | inactive
8 | Cc1ccc(N2CC(C(=O)N3CCC4(CC3)CC(=O)c3ccccc3O4)CC2=O)cc1C (configuration not stated) | inconclusive: 29.1 µM [falling, single point]
9 | C=CCn1c(SCC(=O)Nc2cc(C)on2)nc2sc3c(c2c1=O)CCCC3 | inactive
10 | COc1cccc(-c2ccc3c(N)c(C(=O)Nc4ccc(C)c(F)c4)sc3n2)c1 | inconclusive: 29.1 µM [activator, single point]
11 | CCOc1cc(C2c3c(-c4ccccc4O)n[nH]c3C(=O)N2CCc2ccccc2)ccc1O (configuration not stated) | inactive
12 | Oc1ccc(C(c2nnnn2C2CCCCC2)N2CCOCC2)cc1 (configuration not stated) | inactive
13 | CCOC(=O)CN1C(=O)N[C@@H](c2cccc(C(F)(F)F)c2)C(C(C)=O)=C1C | inactive
14 | CCc1cccc(N=c2c([N+](=O)[O-])nn(-c3ccc(Cl)cc3)n2O)c1 | inactive
15 | Cc1ccc(N=N/C(=C\O)C(=O)c2ccc(Cl)cc2)cc1 | inconclusive: 16.4 µM [falling, single point]
16 | COc1ccc(N2CCN(C(=O)Nc3cccc(C(F)(F)F)c3)CC2)cc1 | inactive
17 | COc1ccc(NS(=O)(=O)c2cc(NC(=O)c3cncc(Br)c3)ccc2OC)cc1 | inactive
18 | Cc1cc(NC(=O)c2sc(Nc3cccc(C(F)(F)F)c3)nc2N)no1 | inconclusive: 29.1 µM [falling, single point]
19 | COc1ccc(C2CC(c3ccc(Cl)cc3)=NN2c2ccc(S(N)(=O)=O)cc2)cc1 (configuration not stated) | inactive
20 | CCOC(=O)c1c(NC(=O)c2cc(-c3ccc(OC)cc3)on2)sc(C)c1C | inactive
21 | O=C(c1ccc(OC2CCN(Cc3cccc(F)c3)CC2)cc1)N1CCCCC1 | inconclusive: 29.1 µM [falling, partial curve, poor fit]
22 | CSc1cc(C)c(OCC(=O)Nc2ccc(NC(C)=O)cc2)c(C)c1 | inactive
23 | O=C(CSc1nnc(Nc2ccccc2F)s1)Nc1cccc(S(=O)(=O)N2CCCCC2)c1 | inconclusive: 25.9 µM [falling, partial curve, poor fit]

Gathered by group: the compounds so far containing two or more sulfur atoms.
Row | SMILES | Potency
9 | C=CCn1c(SCC(=O)Nc2cc(C)on2)nc2sc3c(c2c1=O)CCCC3 | inactive
23 | O=C(CSc1nnc(Nc2ccccc2F)s1)Nc1cccc(S(=O)(=O)N2CCCCC2)c1 | inconclusive: 25.9 µM [falling, partial curve, poor fit]

A different layout for 2 compounds above.
Row	SMILES	Potency
12	Oc1ccc(C(c2nnnn2C2CCCCC2)N2CCOCC2)cc1 (configuration not stated)	inactive
19	COc1ccc(C2CC(c3ccc(Cl)cc3)=NN2c2ccc(S(N)(=O)=O)cc2)cc1 (configuration not stated)	inactive

(next part)

Row | SMILES | Potency
24 | CC(C)(C)C1C/C(=C/c2ccccn2)C(=O)/C(=C/c2ccccn2)C1 (configuration not stated) | active: 5.8 µM
25 | Cc1ccc(-n2nc3c(=O)n(CC(=O)NC(C)CCc4ccccc4)nc(C)c3c2C)cc1 (configuration not stated) | inactive
26 | CCCC(=O)N1CCN(c2ccc(NC(=O)c3ccc([N+](=O)[O-])o3)cc2)CC1 | inconclusive: 29.1 µM [falling, single point]
27 | O=C(Nc1nc2c(s1)CCCC2)c1ccc(Br)s1 | inconclusive: 14.6 µM [falling, partial curve, poor fit]
28 | Cc1cc(C)n(-c2nc3ccccc3n3cnnc23)n1 | inconclusive: 0.651 µM [activator, full curve, poor fit]
29 | CC1=NC(=O)C(N=Nc2ccccc2C(=O)O)N1c1ccccc1 (configuration not stated) | inconclusive: 16.4 µM [falling, partial curve]
30 | CC1(C)COCN1S(=O)(=O)c1ccc(C(=O)Nc2nnc(-c3ccc(Cl)s3)o2)cc1 | inconclusive: 14.1 µM [falling, partial curve, poor fit]
31 | CCc1cc2c(CN3CCN(CCO)CC3)cc(=O)oc2cc1O | inconclusive: 3.26 µM [activator, partial curve, poor fit]
32 | CC(C)Oc1ccc(C(=O)Nc2ccc(Cl)c(S(=O)(=O)Nc3ccc(Cl)cc3)c2)cc1 | inconclusive: 16.4 µM [falling, single point]
33 | CC1CCC(C(C)C)C(OC(=O)Cn2c(-c3ccc(F)cc3)[n+](C)c3ccccc32)C1 (configuration not stated) | inconclusive: 18.4 µM [falling, single point]
34 | COc1ccc(NS(=O)(=O)c2ccc3[nH]c4c(c3c2)CCCCCC4)cc1 | inconclusive: 29.1 µM [falling, single point]
35 | O=C1Nc2ccccc2C1(c1ccccc1)c1ccccc1 | inconclusive: 9.2 µM [falling, single point]
36 | CCN1/C(=C\c2ccc3cc(C)ccc3[n+]2CC)Sc2cc(C)c(C)cc21 | inconclusive: 20.6 µM [falling, single point]
37 | COc1ccc(-n2cc(-c3ccc(C)cc3)[n+]3c2SCC3)cc1 | inconclusive: 29.1 µM [falling, single point]
38 | COc1ccc(CCNC(=O)c2ccc([N+](=O)[O-])cc2Cl)cc1OC | inactive
39 | CC(C)CCCCCCCCCCCCC(=O)NCC(=O)NC1C(O)C(O)C(Nc2ncnc3nc[nH]c23)OC1C(O)CO (configuration not stated) | active: 0.731 µM
40 | Nc1ccccc1SC1CC(=O)N(c2ccccc2Cl)C1=O (configuration not stated) | inconclusive: 25.9 µM [activator, single point]
41 | Cc1ccc(NC(=O)c2cc(S(=O)(=O)NCCC3=CCCCC3)ccc2F)cc1 | inconclusive: 32.6 µM [falling, single point]
42 | Cc1ccc(NC(=S)N(CCCN2CCCC2)Cc2cccn2Cc2ccc(Cl)cc2)cc1Cl | inconclusive: 18.4 µM [falling, single point]
43 | O=C(CCn1c(=O)c2sccc2n(Cc2cc(=O)n3ccccc3n2)c1=O)NCc1ccco1 | inactive
44 | Cc1nnc(SCC(=O)N2c3ccccc3C(C)(c3ccc(Cl)cc3)CC2(C)C)s1 (configuration not stated) | inconclusive: 29.1 µM [falling, single point]
45 | Cc1ccc(C(=O)NNCC(=O)Nc2ccc(Cl)cc2F)cc1 | inactive
46 | Cc1ccc(NCC(=O)N/N=C/c2cccc(Oc3ccccc3)c2)cc1 | inconclusive: 29.1 µM [falling, single point]

Fetched one by one from above, 2 records:
Row | SMILES | Potency
21 | O=C(c1ccc(OC2CCN(Cc3cccc(F)c3)CC2)cc1)N1CCCCC1 | inconclusive: 29.1 µM [falling, partial curve, poor fit]
40 | Nc1ccccc1SC1CC(=O)N(c2ccccc2Cl)C1=O (configuration not stated) | inconclusive: 25.9 µM [activator, single point]

Continued.

Row | SMILES | Potency
47 | c1ccc(-n2ncc3c(NCCN4CCOCC4)ncnc32)cc1 | inconclusive: 5.8 µM [falling, partial curve, poor fit]
48 | CN(Cc1nc(-c2ccncc2)no1)S(=O)(=O)c1ccc(Br)cc1 | inactive
49 | COc1ccc(N(C(C)=O)S(=O)(=O)c2cc(OC)ccc2OC)cc1 | inconclusive: 23.1 µM [falling, partial curve, poor fit]
50 | S=C(NCCCc1cnc[nH]1)NCCCN(Cc1ccc(Cl)cc1)c1ncc(Br)cn1 | inconclusive: 29.1 µM [falling, single point]
51 | CSc1cccc(NC(N)=O)c1 | inactive
52 | CCN(CC)CCn1c(SCC(=O)Nc2cccc(OC)c2)nc2c(sc3ccccc32)c1=O | inconclusive: 18.4 µM [falling, single point]
53 | Nc1ccccc1SC1CC(=O)N(c2ccc(Cl)c(Cl)c2)C1=O (configuration not stated) | inactive
54 | CC(C)N(C(=O)[C@H]1C[C@H](CC(=O)NCc2cccc(C(F)(F)F)c2)C(=O)N2CCc3c([nH]c4ccc(Cl)cc34)[C@]12C)C(C)C | inconclusive: 29.1 µM [falling, single point]
55 | COc1cc(NC(=O)c2cc(-n3cnnc3)ccc2Cl)cc(OC)c1 | inconclusive: 20.6 µM [activator, partial curve, poor fit]
56 | O=C(NNC(=S)NC(=O)c1sc2ccccc2c1Cl)c1ccc(Cl)cc1 | inconclusive: 29.1 µM [falling, single point]
57 | CCOC(=O)C1=C(NC(=S)NC(=O)c2ccccc2)c2ccccc2CC1(C)C | inconclusive: 14.6 µM [falling, partial curve, poor fit]
58 | COc1ccc(NC(=O)CSc2nnc(N)n2CC(=O)Nc2ccc(OC)cc2)cc1 | inactive
59 | COc1cc(F)c(S(=O)(=O)N2CCN(S(=O)(=O)c3ccc4c(c3)OCCO4)CC2)c(F)c1 | inactive
60 | CCN(CCCNC(=O)c1cc2cc3ccc(OC)cc3nc2s1)c1ccccc1 | inconclusive: 20.6 µM [falling, partial curve, poor fit]
61 | Cc1ccc(NC(=O)c2ncn(CCCN3CCN(Cc4cccc5ccccc45)CC3)n2)cc1C | inconclusive: 32.6 µM [falling, partial curve, poor fit]
62 | CCOC(=O)/C=C/c1cc(F)c(S(=O)(=O)N2CCN(S(=O)(=O)c3ccc4c(c3)OCCO4)CC2)cc1F | inactive
63 | COc1ccc(NC(=O)CSC2=C(C#N)C(c3ccco3)C3=C(CCCC3=O)N2)c(OC)c1 (configuration not stated) | inactive
64 | CC1CCCN(C(=O)COC(=O)CNC(=O)c2sc3ccccc3c2Cl)C1 (configuration not stated) | inactive
65 | O=C(/C=C/c1ccc(OC(F)F)cc1)Nc1cccc(S(=O)(=O)NC2=NCCCCC2)c1 | inconclusive: 14.6 µM [falling, partial curve, poor fit]
66 | COc1ccc(NC(=O)CN(C)C(=O)Cc2ccc3c(c2)OCCO3)cc1 | inactive
67 | CCOc1ccc(/C=C2\SC(=S)N(CCC(=O)O)C2=O)cc1 | inconclusive: 32.6 µM [falling, partial curve, poor fit]
